Source: patent publication US20240132622A1 (Bristol-Myers Squibb, published 2024)
No constants are given. Whether binding was seen depends on the method and setting. Some entries that bind do so weakly or less than the wild type.

Chains of the proteins cited; added tags and fusions are not shown.
UniProt Q9UM07: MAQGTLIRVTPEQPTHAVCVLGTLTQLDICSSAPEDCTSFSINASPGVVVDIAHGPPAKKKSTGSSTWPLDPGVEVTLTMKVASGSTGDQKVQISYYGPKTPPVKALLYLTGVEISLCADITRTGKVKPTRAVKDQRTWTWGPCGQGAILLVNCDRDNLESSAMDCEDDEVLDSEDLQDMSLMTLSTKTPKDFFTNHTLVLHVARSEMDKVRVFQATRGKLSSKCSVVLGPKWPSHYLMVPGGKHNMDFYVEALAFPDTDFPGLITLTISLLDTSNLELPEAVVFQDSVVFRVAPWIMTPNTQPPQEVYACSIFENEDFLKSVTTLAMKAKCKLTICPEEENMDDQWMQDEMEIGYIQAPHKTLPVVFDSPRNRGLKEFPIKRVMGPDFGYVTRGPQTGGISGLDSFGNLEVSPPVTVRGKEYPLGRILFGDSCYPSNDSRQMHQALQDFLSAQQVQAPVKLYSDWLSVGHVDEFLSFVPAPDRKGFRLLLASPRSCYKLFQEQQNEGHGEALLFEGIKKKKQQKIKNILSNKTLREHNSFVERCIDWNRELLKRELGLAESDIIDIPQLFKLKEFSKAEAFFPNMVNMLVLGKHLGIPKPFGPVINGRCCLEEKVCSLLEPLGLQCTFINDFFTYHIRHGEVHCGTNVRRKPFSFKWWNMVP

Columns and labels:
[1] = biological target: recombinant human PAD4 (human) (UniProt Q9UM07); test: SPR at pH 7.6; PAD4 concentrations not printed on the sheet
[2] = biological target: recombinant human PAD4 (human) (UniProt Q9UM07); test: SPR at pH 6.0
[3] = biological target: recombinant human PAD4 (human) (UniProt Q9UM07); test: SPR at pH 6.0; PAD4 concentrations not printed on the sheet

Measured: binding

B1: hz13-5 (antibody, IgG1, V domains shown)
VH: EVLLVQSGAEVKKPGASVKLSCTSSDFNIKDHFIHWVRQAPGKGLEWMGRIDPEDDETKYAPKFQDRVTMTADTSTDTAYMELSSLRSEDTAVFYCAGYGNYEGAMDYWGQGTLVTVSS
VL: DIQMTQSPSSLSASVGDRVTITCRASENVNNYGIGFMNWFQQKPGKAPKLLIYAASRRGSGVPSRFSGSGSGTDFTLTISSLQPEDFATYFCQQSKEVPYTFGQGTKVEIK
notes: also called clone 13-based hz13-5 antibody; parent hz13-5
binds: all assays above
